Results are given in words; binding and its absence hold for the method and conditions named. Binding seen in cells or lysates may run through a third protein. Some binding calls cover weakened binding; strength is not graded here. For some of these results: Where a sequence is shown, tags or fusion partners need not be part of it.

Amino acid sequences for entries named in this document (tags omitted). Residues count along the entry.
UniProt P35222: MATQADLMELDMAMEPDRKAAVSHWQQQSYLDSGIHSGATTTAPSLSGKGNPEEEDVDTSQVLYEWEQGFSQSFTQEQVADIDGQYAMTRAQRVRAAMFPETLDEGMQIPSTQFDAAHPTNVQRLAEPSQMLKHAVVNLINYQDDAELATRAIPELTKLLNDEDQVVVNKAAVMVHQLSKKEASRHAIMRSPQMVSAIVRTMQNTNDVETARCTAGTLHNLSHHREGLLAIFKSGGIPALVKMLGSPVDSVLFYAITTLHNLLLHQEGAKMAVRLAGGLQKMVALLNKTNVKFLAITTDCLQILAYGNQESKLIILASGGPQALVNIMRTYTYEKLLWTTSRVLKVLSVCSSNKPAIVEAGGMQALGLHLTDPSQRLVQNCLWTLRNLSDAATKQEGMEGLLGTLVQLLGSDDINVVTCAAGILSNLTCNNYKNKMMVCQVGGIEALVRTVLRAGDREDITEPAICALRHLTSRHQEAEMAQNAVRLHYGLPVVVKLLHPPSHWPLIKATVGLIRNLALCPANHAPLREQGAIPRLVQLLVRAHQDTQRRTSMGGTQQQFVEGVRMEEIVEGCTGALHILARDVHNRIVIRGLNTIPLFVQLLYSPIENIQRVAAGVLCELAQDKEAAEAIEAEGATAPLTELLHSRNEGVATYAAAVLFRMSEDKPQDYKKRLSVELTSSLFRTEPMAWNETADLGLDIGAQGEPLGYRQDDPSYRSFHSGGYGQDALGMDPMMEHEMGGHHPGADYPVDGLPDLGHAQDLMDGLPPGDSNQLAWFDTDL
UniProt Q15596, residues 2-1464: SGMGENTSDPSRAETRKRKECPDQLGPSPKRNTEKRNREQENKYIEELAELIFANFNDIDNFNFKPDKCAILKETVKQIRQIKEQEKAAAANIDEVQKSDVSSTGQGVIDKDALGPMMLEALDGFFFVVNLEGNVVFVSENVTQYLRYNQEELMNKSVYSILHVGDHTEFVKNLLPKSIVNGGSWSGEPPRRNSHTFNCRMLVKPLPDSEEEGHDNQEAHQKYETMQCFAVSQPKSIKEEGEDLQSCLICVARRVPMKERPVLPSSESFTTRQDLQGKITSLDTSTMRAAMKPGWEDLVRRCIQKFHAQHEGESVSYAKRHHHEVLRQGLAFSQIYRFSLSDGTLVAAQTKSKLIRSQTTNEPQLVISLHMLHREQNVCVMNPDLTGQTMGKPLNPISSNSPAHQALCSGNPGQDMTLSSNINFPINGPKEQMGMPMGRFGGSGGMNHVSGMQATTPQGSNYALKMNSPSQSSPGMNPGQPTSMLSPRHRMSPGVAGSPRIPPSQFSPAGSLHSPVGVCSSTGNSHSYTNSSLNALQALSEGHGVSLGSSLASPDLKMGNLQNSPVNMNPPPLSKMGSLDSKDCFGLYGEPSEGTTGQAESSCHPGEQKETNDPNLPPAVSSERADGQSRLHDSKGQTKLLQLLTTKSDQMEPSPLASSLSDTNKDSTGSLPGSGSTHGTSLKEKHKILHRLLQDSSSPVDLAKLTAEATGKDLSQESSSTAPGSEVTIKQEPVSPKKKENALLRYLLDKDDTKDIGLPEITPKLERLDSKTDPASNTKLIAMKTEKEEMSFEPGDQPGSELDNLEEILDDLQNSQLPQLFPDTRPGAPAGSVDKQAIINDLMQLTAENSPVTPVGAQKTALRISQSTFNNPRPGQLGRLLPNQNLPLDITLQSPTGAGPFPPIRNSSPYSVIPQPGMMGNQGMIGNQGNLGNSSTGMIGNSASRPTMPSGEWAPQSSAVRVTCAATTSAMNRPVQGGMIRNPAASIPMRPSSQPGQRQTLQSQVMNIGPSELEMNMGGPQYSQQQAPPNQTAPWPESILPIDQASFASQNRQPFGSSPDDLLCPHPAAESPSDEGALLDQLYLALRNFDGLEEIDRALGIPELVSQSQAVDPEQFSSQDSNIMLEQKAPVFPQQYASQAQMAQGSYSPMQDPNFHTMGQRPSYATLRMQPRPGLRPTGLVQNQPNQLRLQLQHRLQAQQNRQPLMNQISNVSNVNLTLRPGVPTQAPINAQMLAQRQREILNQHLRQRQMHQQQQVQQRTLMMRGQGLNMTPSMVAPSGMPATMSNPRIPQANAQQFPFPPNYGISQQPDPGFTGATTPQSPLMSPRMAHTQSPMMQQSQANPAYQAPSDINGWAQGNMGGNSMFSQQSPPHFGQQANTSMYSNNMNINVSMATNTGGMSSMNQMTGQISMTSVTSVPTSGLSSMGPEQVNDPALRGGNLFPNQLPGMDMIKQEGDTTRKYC

The target in one assay is β-catenin (UniProt P35222). As to the kind of experiment: endogenous coimmunoprecipitation in HEK293 cells.
The target of the next assay is PKCα (UniProt P17252). The experiment in a line: in vivo coimmunoprecipitation with various PKC isoforms.
The target of assay [1] is glucocorticoid receptor-interacting protein 1 (GRIP1) (UniProt Q15596). As to the kind of experiment: anti-Flag M2 affinity purification from HEK293 extracts, LC-MS/MS and immunoblot of eluates. A general note: In western blotting, separated proteins are transferred to a membrane and probed.
Assay [2] has the same target. The experiment in a line: anti-Flag purification from HEK293 cells, LC-MS/MS; detected in the eluates by immunoblot.

B1: RORα (receptor, UniProt P35398 1-523, looked up)
chain: MESAPAAPDPAASEPGSSGADAAAGSRETPLNQESARKSEPPAPVRRQSYSSTSRGISVTKKTHTSQIEIIPCKICGDKSSGIHYGVITCEGCKGFFRRSQQSNATYSCPRQKNCLIDRTSRNRCQHCRLQKCLAVGMSRDAVKFGRMSKKQRDSLYAEVQKHRMQQQQRDHQQQPGEAEPLTPTYNISANGLTELHDDLSNYIDGHTPEGSKADSAVSSFYLDIQPSPDQSGLDINGIKPEPICDYTPASGFFPYCSFTNGETSPTVSMAELEHLAQNISKSHLETCQYLREELQQITWQTFLQEEIENYQNKQREVMWQLCAIKITEAIQYVVEFAKRIDGFMELCQNDQIVLLKAGSLEVVFIRMCRAFDSQNNTVYFDGKYASPDVFKSLGCEDFISFVFEFGKSLCSMHLTEDEIALFSAFVLMSADRSWLQEKVKIEKLQQKIQLALQHVLQKNHREDGILTKLICKVSTLRALCGRHTEKLMAFKAIYPDIVRLHFPPLYKELFTSEFEPAMQIDG
Turning to B1, the binding result with β-catenin and with PKCα was “binds” each time.

B2: Flag-tagged RORα (receptor, UniProt P35398 1-523, looked up, not shown: small tags and cut ends)
chain: B1 chain
Turning to B2, the binding result in assay [1] and in assay [2] was “binds” in each case.
